Measurements from patent US7256007B2, “Methods of regulating cytokine signalling” (The Walter and Eliza Hall Institute of Medical Research, priority 2000, dated 2007).
Part of at least one peptide drawing is inferred or uncertain, most often the ends. Square brackets hold non-standard residues; d marks the D form. Peptide text beside a SMILES is read from it. pY = N[C@@H](Cc1ccc(OP(=O)(O)O)cc1)C(=O)O

Biological target: T1, SOCS-3 (Mus musculus, UniProt O35718)
T1 construct: hexahistidine (pET15b) (N); made in house; host or cells: E. coli BL21 DE3 pLysS
T1 sequence (O35718 1-225): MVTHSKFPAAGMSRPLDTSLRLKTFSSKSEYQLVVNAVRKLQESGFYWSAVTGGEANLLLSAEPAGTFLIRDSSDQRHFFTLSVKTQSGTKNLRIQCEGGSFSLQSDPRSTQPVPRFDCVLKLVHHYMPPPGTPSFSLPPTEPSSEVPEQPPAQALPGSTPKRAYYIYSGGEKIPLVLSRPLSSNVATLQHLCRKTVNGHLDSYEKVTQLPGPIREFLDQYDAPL
Assay: Competitive binding assay on the Biosensor: soluble peptide displaces SOCS-3 from immobilized gp130 (750-764) phosphopeptide
Design: species or system murine
Protocol: Purified protein was refolded by dialysis into PBS containing 2 mM DTT, 2 mM EDTA and 0.02% v/v Tween 20. Refolded material was purified to homogeneity by ion exchange chromatography on a Mono S column (Pharmacia).
Samples were left overnight at 4° C. prior to analysis on the Biosensor so that the rate of protein loss due to absorption was minimal through the course of the experiment.
The inventors also used this competition assay to reassess the potential solution binding of the phosphopeptides listed in FIG. 1A.

| SMILES | fold weaker affinity for SOCS-3 than gp130(750-764) phosphopeptide | IC50 (read-out: IC50 for inhibition of SOCS-3 binding to immobilized ligand, Example 8) [µM] |
| --- | --- | --- |
| CC(C)C[C@H](N)C(=O)N1CCC[C@H]1C(=O)N[C@@H](CCC(N)=O)C(=O)N[C@@H](CC(=O)O)C(=O)N[C@@H](CCCCN)C(=O)N[C@@H](CCC(=O)O)C(=O)N[C@@H](Cc1ccc(OP(=O)(O)O)cc1)C(=O)N[C@@H](Cc1ccc(O)cc1)C(=O)N[C@@H](CCCCN)C(=O)N[C@H](C(=O)N[C@@H](CCCCN)C(=O)N[C@@H](CCC(=O)O)C(=O)N1CCC[C@H]1C(=O)NCC(=O)N[C@@H](CCC(=O)O)C(N)=O)C(C)C [JAK2, reference compound] | ~10,000 fold | – |
| CC(C)C[C@H](NC(=O)[C@@H]1CCCN1C(=O)[C@@H](N)CC(C)C)C(=O)NCC(=O)N[C@@H](CCCCN)C(=O)N[C@@H](CC(=O)O)C(=O)N[C@@H](Cc1ccc(OP(=O)(O)O)cc1)C(=O)N[C@@H](Cc1ccc(O)cc1)C(=O)N[C@H](C(=O)N[C@H](C(=O)N[C@@H](CCCNC(=N)N)C(=O)N[C@@H](CCC(=O)O)C(=O)N1CCC[C@H]1C(=O)NCC(=O)N[C@@H](CCC(N)=O)C(N)=O)C(C)C)C(C)C [JAK3, reference compound] (H-LPLGKD[pY]YVVREPGQ-NH2; N-terminus assumed) | 1,000 fold | 110 |
